Test results published in US10265275B2, “Phenolic coatings and methods of making and using same” (Northwestern University, priority 2013, dated 2019).

Legend:
[1] = Coating deposition from purified polyphenols, silver metallization; settings: purified compounds, polysulfone (FIG. 3)
[2] = Coating ability on TiO2 at pH 3-9, XPS Ti2p signal attenuation; settings: for capable of forming coatings between pH 3 and 9: TiO2, XPS, at least 20% signal reduction; for Optimal Coating pH: pH with the greatest signal attenuation in the XPS trials
[3] = Coating thickness on TiO2 by ellipsometry
[4] = Coating ability on a wide range of substrate materials (XPS, ellipsometry, silver deposition); settings: 600 mM NaCl; for Coating Formed? SiO2: substrate SiO2 (silica); for Coating Formed? SiO2 / Coating Formed? Au / Coating Formed? Nylon / Coating Formed? PEEK / Coating Formed? PPS / Coating Formed? PC / Coating Formed? PS / Coating Formed? PTFE / Coating Formed? SS: each precursor at its own pH; for Coating Formed? TiO2: substrate TiO2, each precursor at its own pH (TA 7, PG 7, catechol 8, catechin 9, HHQ 6, EGCG 7); for Coating Formed? Au: substrate gold; for Coating Formed? Nylon: substrate nylon 6-12; for Coating Formed? PEEK: substrate poly(ether ether ketone); for Coating Formed? PPS: substrate poly(p-phenylene sulfide); for Coating Formed? PC: substrate polycarbonate; for Coating Formed? PS: substrate polystyrene; for Coating Formed? PTFE: substrate polytetrafluoroethylene; for Coating Formed? SS: substrate stainless steel
[5] = Effect of salt on coating formation on TiO2, XPS Ti2p signal; settings: for able to coat both TiO2 and SiO2 with at least one of the experimental conditions: TiO2 and SiO2, salts of Tables 8-9; for Ti2p Signal Strength (%): 48 h
[6] = Effect of salt on coating formation on SiO2, XPS Si2p signal; settings: 48 h
[7] = pH 6, Ca2+ = 600 mM CaCl2, 1 mg/mL
[8] = pH 6, Mg2+ = 600 mM MgCl2, 1 mg/mL
[9] = pH 7, Ca2+ = 600 mM CaCl2, 1 mg/mL
[10] = pH 7, Cu2+ = 100 μM CuCl2 + 600 mM NaCl, 1 mg/mL
[11] = pH 7, Mg2+ = 600 mM MgCl2, 1 mg/mL
[12] = pH 7, Na+ = 600 mM NaCl, 1 mg/mL
[13] = pH 7, Zn2+ = 100 μM ZnCl2 + 600 mM NaCl, 1 mg/mL
[14] = pH 3, precursor 1 mg/mL, 24 h, 600 mM NaCl
[15] = pH 4, precursor 1 mg/mL, 24 h, 600 mM NaCl
[16] = pH 5, precursor 1 mg/mL, 24 h, 600 mM NaCl
[17] = pH 6, precursor 1 mg/mL, 24 h, 600 mM NaCl
[18] = pH 7, precursor 1 mg/mL, 24 h, 600 mM NaCl
[19] = pH 8, precursor 1 mg/mL, 24 h, 600 mM NaCl
[20] = pH 9, precursor 1 mg/mL, 24 h, 600 mM NaCl
[21] = pH 8, Ca2+ = 600 mM CaCl2, 1 mg/mL
[22] = pH 8, Cu2+ = 100 μM CuCl2 + 600 mM NaCl, 1 mg/mL
[23] = pH 8, Mg2+ = 600 mM MgCl2, 1 mg/mL
[24] = pH 8, Na+ = 600 mM NaCl, 1 mg/mL
[25] = pH 8, Zn2+ = 100 μM ZnCl2 + 600 mM NaCl, 1 mg/mL
[26] = pH 6, Cu2+ = 100 μM CuCl2 + 600 mM NaCl, 1 mg/mL
[27] = pH 6, Na+ = 600 mM NaCl, 1 mg/mL
[28] = pH 6, Zn2+ = 100 μM ZnCl2 + 600 mM NaCl, 1 mg/mL

SMILES	capable of forming coatings between pH 3 and 9 [2]	Coating Formed? SiO2 [4]	Coating Formed? TiO2 [4]	Coating Formed? Au [4]	Coating Formed? Nylon [4]	Coating Formed? PEEK [4]	Coating Formed? PPS [4]	Coating Formed? PC [4]	Coating Formed? PS [4]	Coating Formed? PTFE [4]	Coating Formed? SS [4]	able to coat both TiO2 and SiO2 with at least one of the experimental conditions [5]	Ti2p Signal Strength (%) [2, 14]	Ti2p Signal Strength (%) [2, 15]	Ti2p Signal Strength (%) [2, 16]	Ti2p Signal Strength (%) [2, 17]	Ti2p Signal Strength (%) [2, 18]	Ti2p Signal Strength (%) [2, 19]	Ti2p Signal Strength (%) [2, 20]	Optimal Coating pH [2]	further results
Oc1cc(O)c2c(c1)O[C@H](c1cc(O)c(O)c(O)c1)[C@H](O)C2 [EGC, epigallocatechin]	capable of forming coatings																				coating deposition, qualitative observation after silver metallization [1]: coatings are deposited as expected; Ti2p Signal Strength (%) ([2]; pH 7, precursor 0.1 mg/mL): 90.2%; Ti2p Signal Strength (%) ([2]; pH 8, precursor 0.1 mg/mL): 84.1%; Ti2p Signal Strength (%) ([2]; pH 9, precursor 0.1 mg/mL): 41.2%
O=C(OC[C@H]1O[C@@H](OC(=O)c2cc(O)c(O)c(OC(=O)c3cc(O)c(O)c(O)c3)c2)[C@H](OC(=O)c2cc(O)c(O)c(OC(=O)c3cc(O)c(O)c(O)c3)c2)[C@@H](OC(=O)c2cc(O)c(O)c(OC(=O)c3cc(O)c(O)c(O)c3)c2)[C@@H]1OC(=O)c1cc(O)c(O)c(OC(=O)c2cc(O)c(O)c(O)c2)c1)c1cc(O)c(O)c(OC(=O)c2cc(O)c(O)c(O)c2)c1 [Tannic acid, tannic acid]	capable of forming coatings	No	Yes	Yes	Yes	Yes	Yes	Yes	Yes	Yes	Yes	able to coat both TiO2 and SiO2	65.2%	56.8%	62.9%	0.0%	0.0%	62.9%	72.7%	7.0	Coating Thickness (nm) ([3]; TiO2, 24 h, pH 6): 5.8 ± 0.9 nm; Coating Thickness (nm) ([3]; TiO2, 24 h, pH 7): 109.3 ± 7.1 nm; Ti2p Signal Strength (%) [5, 7]: 0.0%; Ti2p Signal Strength (%) [5, 8]: 0.0%; Ti2p Signal Strength (%) [5, 9]: 11.4%; Ti2p Signal Strength (%) [5, 10]: 0.0%; Ti2p Signal Strength (%) [5, 11]: 88.9%; Ti2p Signal Strength (%) [5, 12]: 0.0%; Ti2p Signal Strength (%) [5, 13]: 0.0%; Si2p Signal Strength (%) [6, 7]: 102.7%; Si2p Signal Strength (%) [6, 8]: 83.8%; Si2p Signal Strength (%) [6, 9]: 105.4%; Si2p Signal Strength (%) [6, 10]: 103.0%; Si2p Signal Strength (%) [6, 11]: 50.3%; Si2p Signal Strength (%) [6, 12]: 111.9%; Si2p Signal Strength (%) [6, 13]: 90.6%
O=C(O[C@@H]1Cc2c(O)cc(O)cc2O[C@@H]1c1ccc(O)c(O)c1)c1cc(O)c(O)c(O)c1 [ECG, epicatechin gallate]																					coating deposition, qualitative observation after silver metallization [1]: coatings are deposited as expected
Oc1cccc(O)c1O [PG, 1,2,3-trihydroxybenzene]	capable of forming coatings	No	Yes	Yes	Yes	Yes	Yes	Yes	Yes	Yes	Yes	able to coat both TiO2 and SiO2	100.9%	96.6%	87.6%	35.3%	11.0%	58.0%	86.9%	7.0	Coating Thickness (nm) ([3]; TiO2, 24 h, pH 7): 19.0 ± 1.9 nm; Ti2p Signal Strength (%) [5, 9]: 0.0%; Ti2p Signal Strength (%) [5, 10]: 0.0%; Ti2p Signal Strength (%) [5, 11]: 0.0%; Ti2p Signal Strength (%) [5, 12]: 12.6%; Ti2p Signal Strength (%) [5, 13]: 3.9%; Si2p Signal Strength (%) [6, 9]: 2.2%; Si2p Signal Strength (%) [6, 11]: 0.0%; Si2p Signal Strength (%) [6, 12]: 100.1%; Si2p Signal Strength (%) [6, 13]: 108.7%
Oc1ccccc1O [Catechol, catechol]	capable of forming coatings	No	Yes	Yes	Yes	Yes	Yes	Yes	Yes	Yes	Yes	able to coat both TiO2 and SiO2					51.7%	8.5%	81.1%	8.0	Coating Thickness (nm) ([3]; TiO2, 48 h, pH 8): 5.0 ± 0.1 nm; Ti2p Signal Strength (%) [5, 21]: 0.0%; Ti2p Signal Strength (%) [5, 22]: 89.8%; Ti2p Signal Strength (%) [5, 23]: 0.0%; Ti2p Signal Strength (%) [5, 24]: 9.7%; Ti2p Signal Strength (%) [5, 25]: 93.5%; Si2p Signal Strength (%) [6, 21]: 0.0%; Si2p Signal Strength (%) [6, 22]: 72.4%; Si2p Signal Strength (%) [6, 23]: 0.0%; Si2p Signal Strength (%) [6, 24]: 108.7%; Si2p Signal Strength (%) [6, 25]: 76.9%
Oc1ccc(O)c(O)c1 [HHQ, hydroxyhydroquinone]	capable of forming coatings	No	Yes	Yes	Yes	Yes	Yes	Yes	Yes	Yes	Yes	able to coat both TiO2 and SiO2	18.6%	32.9%	22.0%	1.1%	51.6%	88.2%	76.8%	6.0	Coating Thickness (nm) ([3]; TiO2, 48 h, pH 6): 48.8 ± 10.5 nm; Ti2p Signal Strength (%) [5, 7]: 0.0%; Ti2p Signal Strength (%) [5, 26]: 14.1%; Ti2p Signal Strength (%) [5, 8]: 0.0%; Ti2p Signal Strength (%) [5, 27]: 0.0%; Ti2p Signal Strength (%) [5, 28]: 5.0%; Si2p Signal Strength (%) [6, 7]: 1.5%; Si2p Signal Strength (%) [6, 26]: 93.5%; Si2p Signal Strength (%) [6, 8]: 80.5%; Si2p Signal Strength (%) [6, 27]: 94.9%; Si2p Signal Strength (%) [6, 28]: 104.8%

Some entries repeat one wording, which the source may state once for all of them.
